US12129493B2, “Host cells and methods useful for producing unnatural terpenoids using a novel artificial metalloenzyme” (The Regents of the University of California, priority 2020, dated 2024)

Tested on: E. coli BL21(DE3) cells
Experiment: ICP-MS distribution of iridium in subcellular fractions
Type: cell-based
Details: 0.1 μM Ir(Me)MPIX

CCC1=C(C)c2cc3[n-]c(cc4[n-]c(cc5nc(cc1n2)C(C)=C5CC)c(C)c4CCC(=O)O)c(CCC(=O)O)c3C.[CH3-].[Ir+3] [Ir(Me)MPIX]
iridium located in the cytoplasm (cells harboring CYP119, expressing no transporter): 10%
iridium located in the cytoplasm (cells harboring CYP119 and expressing the HUG transport system): 65%
